Assay results taken from patent US7820172B1, “Laminin-derived multi-domain peptides” (BioSurface Engineering Technologies, Inc., priority 2006, dated 2010).
At least one peptide structure holds a part that was inferred or is arguable (an end, a ring closure or a residue). Positions of bridges follow the written chain, without caps; N, C: chain ends. Non-standard residues stand in square brackets, D forms with d. Residues, ends and D or L forms follow the SMILES beside them. Chains are numbered I, II in the order given. Ahx = NCCCCCC(=O)O

Assays:
BAEC = assay: Attachment of BAEC to LA2 coated polystyrene; assay type: cell-based, bovine; conditions: 2 μg/ml LA2, 3 hours
C2C12 cells = assay: Attachment of C2C12 cells to coated polystyrene; assay type: cell-based, murine
Method: FIG. 1. Microphotographs of C2C12 cell on LA2 polystyrene. Murine myoblast C2C12 cells were seeded on uncoated polystyrene (A), or polystyrene coated 0.05-(B), 0.2-(C), and 0.4 (D) μg/ml LA2. Three hours after cell seeding, the materials were washed with PBS and micrographs taken with phase contrast optics. Original magnification 200×.
FIG. 2. Attachment of C2C12 cells to LA2 or SIKVAV (SEQ ID NO:16) coated polystyrene. C2C12 cells were seeded on polystyrene surface coated with LA2 (A) or SIKVAV (SEQ ID NO:16) (B). Three hours after seeding, unbound cells were removed by rinsing, and relative cell number determined using a fluorescent assay as described.
(§1) Cells Adhesion and Proliferation on LA2 coated surfaces. To evaluate the effects of LA2-coating on cell attachment, untreated polystyrene 96-well plates were coated with LA2 in concentration indicated in figures. In the cases of EVA films, ePTFE and titanium, the materials were placed in 48- or 96-well plate and coated with 2 μg/ml of LA2. Cell suspension in density of 1×10^6/ml was added to the wells. After culturing the cells at 37° C. for 3 hours, the 96-well plates were washed with PBS twice. Cell number on the surface was determined using CyQuant® cell Proliferation Kit (Molecular Probes, Eugene, Oreg.). To detect cell adhesion on the titanium and ePTFE surfaces, cells were fixed with 4% buffered formalin and stained with bis-benzamide, viewed using fluorescence microscopy, and images recorded on digital media. In the cell proliferation studies, EVA films (6.5 mm diameter), similar to those used in the cell adhesion studies, were coated with 2 μg LA2/ml. The coated films were placed in untreated polystyrene 96-well plate and A7R5 cell suspension in density of 1×10^5/ml was added to the wells. After incubation of 3 hours, 3 and 7 days, the EVA films were transferred to a new 96-well plate and cell number on the film was determined using CyQuant® cell Proliferation Kit.

C57BL/6 mice = assay: Matrigel implant angiogenesis model; assay type: in vivo; conditions: scale of 0-3; 50 μg peptide per site with hydroxyapatite in Matrigel, subcutaneous, 14 days
4MBr5 = assay: Attachment of 4MBr5 cells to LA2 coated polystyrene; assay type: cell-based, monkey; conditions: 4MBr5, 2 μg/ml LA2, 3 hours
[1] = system: MC3T3 osteoprogenitor cells; assay: Attachment of MC3T3 cells to LA2 coated polystyrene; assay type: cell-based, murine; conditions: MC3T3, 2 μg/ml LA2, 3 hours
MC3T3-E1 = assay: Alkaline phosphatase (ALP) assay; assay type: cell-based, mouse; conditions: LA2 (2 μg/ml) coated polystyrene, BMP-2 50 ng/ml, 4 days, p<0.05
C3H10T1/2 cells = assay: Cell attachment on ePTFE and titanium surfaces (bis-benzamide stain); assay type: cell-based, murine; conditions: C3H10T1/2, 2 μg/ml LA2, 3 hours, versus no coating
A7R5 cells = assay: Cell proliferation on LA2 coated EVA films; assay type: cell-based, rat; conditions: A7R5, EVA films coated with 2 μg LA2/ml, 3 hours, 3 and 7 days
Male SD rats = assay: Tissue integration of LA2-coated ePTFE in rat subcutaneous implant model; assay type: in vivo; conditions: coated vs uncoated ePTFE, 14 days
Method: Tissue integration of LA2-coated material in rat implant model. Male SD rats were anesthetized using an intraperitoneal administration of ketamine (40 mg/kg) and xylazine (5 mg/kg). Excess hair was removed and sterile surgical sites were prepared on the lower back. Subcutaneous pouches, approximately 3 cm long, were made through a skin incision using a hemostat and blunt dissection. A wafer (1×1.5 cm) of porous ePTFE was introduced into a subcutaneous pouch. The pouches were positioned on the upper flanks on either side of the backbone, with one wafer coated with MD LA2 and the other wafer uncoated. After the implant, the incision was closed with stainless steel surgical clips. Animals were assigned to experiment groups randomly. Each animal received bilateral subcutaneous implants. There were 8 implant sites for each treatment. After 14 days, animals were euthanized and the ePTFE implants were surgically recovered and processed for subsequent staining with hemotoxylin and eosin.
We hypothesized that ePTFE coated with LA2 would display improved tissue integration. […] In this analysis, the depth of tissue penetration was monitored by histomorphometric methods and scored on a scale of 1-4 (in 25% increments).

A7R5 = assay: Attachment of A7R5 cells to LA2 coated polystyrene; assay type: cell-based, rat; conditions: A7R5, 2 μg/ml LA2, 3 hours
cell attachment = assay: Related cell binding assays comparing coatings (cell type not stated); assay type: cell-based
RMEC cells = assay type: cell-based, rat
Method: as §1, with “After culturing the cells at 37° C. for 3 hours, the 96-well plates were washed with PBS twice.” left out
YIGSR is a different laminin adhesion sequence that has been used to increase cell attachment to device surfaces. […] Since cells could bind to LA2 via cell surface heparan sulfate, the heparin binding domain of LA2 was blocked by coating peptide on substrate-adsorbed heparin.

[2] = C2C12, polystyrene, 0.4 μg/ml or higher

CC[C@H](C)[C@H](NC(=O)[C@H](CCCNC(=N)N)NC(=O)[C@H](CCC(=O)O)NC(=O)[C@H](CC(C)C)NC(=O)[C@H](CCCCN)NC(=O)[C@H](CCCNC(=N)N)NC(=O)[C@H](CCCCN)NC(=O)[C@H](CCCNC(=N)N)NC(=O)CCCCCNC(=O)CCCCCNC(=O)CCCCCNC(=O)[C@H](CCCCNC(=O)[C@H](C)NC(=O)[C@H](C)NC(=O)[C@@H](NC(=O)[C@H](C)NC(=O)[C@@H](NC(=O)[C@H](CCCCN)NC(=O)[C@@H](NC(=O)[C@@H](N)CO)[C@@H](C)CC)C(C)C)C(C)C)NC(=O)[C@H](C)NC(=O)[C@H](C)NC(=O)[C@@H](NC(=O)[C@H](C)NC(=O)[C@@H](NC(=O)[C@H](CCCCN)NC(=O)[C@@H](NC(=O)[C@@H](N)CO)[C@@H](C)CC)C(C)C)C(C)C)C(=O)N[C@@H](C)C(=O)N[C@@H](CCCNC(=N)N)C(N)=O [LA2, H-SIKVAVAAK(H-SIKVAVAA)-Ahx-Ahx-Ahx-RKRKLERIAR-NH2] (I: H-SIKVAVAAK[Ahx][Ahx][Ahx]RKRKLERIAR-NH2 / II: H-SIKVAVAA; amide I:9-II:C)
cell attachment to polystyrene (BAEC): Cell attachment was increased | coating concentration required to achieve the same levels of cell attachment (C2C12 cells; C2C12, polystyrene (FIG. 2)): 0.4 µg/mL | cell attachment at high coating concentrations (C2C12 cells; [2]): no further increase in cell attachment | cell spreading on substrate (C2C12 cells; [2]): the cells spread on the substrate | cell attachment at low coating concentrations (C2C12 cells; C2C12, polystyrene, 0.05- to 0.1 μg/ml): low but statistically significantly increase in cell attachment | cell spreading on substrate (C2C12 cells; C2C12, polystyrene, lower concentrations than 0.4 μg/ml): the cells did not effectively spread | cell attachment compared to uncoated polystyrene (C2C12 cells; C2C12 cells, coated polystyrene, 3 hours): significant increase in cell attachment | angiogenesis score (C57BL/6 mice): 3±0 | cell attachment to polystyrene (4MBr5): Cell attachment was increased | cell attachment to polystyrene [1]: Cell attachment was increased | alkaline phosphatase production (MC3T3-E1): enhanced alkaline phosphatase production | cell attachment to ePTFE (C3H10T1/2 cells): dramatically increased cell attachment | cell attachment to titanium (C3H10T1/2 cells): dramatically increased cell attachment | cell proliferation on coated EVA (A7R5 cells): rapidly increased in cell number such that by day three the cells were confluent | cell density towards the center of the implants (Male SD rats; region-of-interest count, p=<0.001 t test): statistically increased | tissue penetration into the implants (Male SD rats; subcutaneous, scored 1-4, p=0.037 Mann-Whitney Rank Sum Test): increase of tissue penetration into the implants | cell attachment to polystyrene (A7R5): Cell attachment was increased | cell attachment versus linear SIKVAV, dimerized SIKVAV and random-sequence peptides (cell attachment; coating): more effective | cell attachment versus bovine collagen (cell attachment; same coating concentration): more effective in supporting cell attachment than bovine collagen | cell attachment versus intact laminin or fibronectin (cell attachment; same coating concentration): as effective as intact laminin or fibronectin | effectiveness in mediating attachment of RMEC cells relative to MD Peptide 2 (RMEC cells; RMEC cells): 3-4 times | support of RMEC attachment versus similar peptides with YIGSR or random sequences (RMEC cells; RMEC, coating): more effective in supporting endothelial cell RMEC | attachment of RMEC cells with heparin binding domain blocked (RMEC cells; peptide coated on substrate-adsorbed heparin): Attachment of RMEC cells persisted
